PubChem BioAssay AID686937 – Drosophila RNAi Screening Center, 2013
In all, the deposit lists about 23,000 reagents; shown is an unselected part of those that have a named target and a result. 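Reduced-secretion tags in replicate 1 do not always agree with the z-scores; no criterion for assigning the tags was given.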 A plus sign joins genes that one reagent is predicted to hit. Further read-outs or replicates are left out here. Not stated in the record: the amount of reagent.

- Test: 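Knock-downs that reduce output of a secreted reporter enzyme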 (primary screen)
- Cell system: Drosophila S2 cells expressing secreted horseradish peroxidase
- Reagent: long dsRNA against Drosophila genes
- Time to read-out: about 5.5 days (5 days dsRNA, then 12 h reporter induction)
- Conditions: reporter expression induced after 5 days of dsRNA, read 12 h later; inducer not stated
- Detection: 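Chemiluminescent measurement of peroxidase in the medium 12 h after reporter induction, following 5 days of dsRNA, given as a z-score per plate; higher means more secretion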
- Direction: z-score: higher = more reporter secreted into medium

Ugt36F1 (UDP-glycosyltransferase family 36 member F1) [DRSC02601] | z-score, replicate 1: 0.22
Sf3b1 (Splicing factor 3b subunit 1) [DRSC00535] | z-score, replicate 1: -4.97; phenotype, replicate 1: reduced secretion
Gr23a (Gustatory receptor 23a) [DRSC00410] | z-score, replicate 1: 0.38
Tsp42Ek (Tetraspanin 42Ek) [DRSC06187] | z-score, replicate 1: 0.31
dila (dilatory) [DRSC06607] | z-score, replicate 1: 0.1
Aasdh (Aminoadipate-semialdehyde dehydrogenase) [DRSC03467] | z-score, replicate 1: 0.71
CG32111 (retired record) [DRSC09203] | z-score, replicate 1: 0.79
Gr98d (Gustatory receptor 98d) [DRSC14571] | z-score, replicate 1: 0.12
CheB93b (Chemosensory protein B 93b) [DRSC21762] | z-score, replicate 1: 0.58
Cdc7 (Cdc7 kinase) [DRSC18428] | z-score, replicate 1: 0.4
Cdc7 (Cdc7 kinase) [DRSC18429] | z-score, replicate 1: 0.36
Cdc7 (Cdc7 kinase) [DRSC22133] | z-score, replicate 1: 0.63
HP6 (Heterochromatin protein 6) [DRSC00471] | z-score, replicate 1: -0.1
Octalpha2R (alpha2-adrenergic-like octopamine receptor) [DRSC13319] | z-score, replicate 1: 0.14
Octalpha2R (alpha2-adrenergic-like octopamine receptor) [DRSC15314] | z-score, replicate 1: 0.29
CG14200 [DRSC19555] | z-score, replicate 1: -4.9; phenotype, replicate 1: reduced secretion
CG31223 [DRSC15115] | z-score, replicate 1: 0.18
CG42853 [DRSC09534] | z-score, replicate 1: 0.4
Rad9 [DRSC11263] | z-score, replicate 1: 0.4
IntS14 (Integrator 14) [DRSC00668] | z-score, replicate 1: 0.28
Pebp1 (Phosphatidylethanolamine-binding protein 1) [DRSC15354] | z-score, replicate 1: -0.58
bin (biniou) [DRSC10332] | z-score, replicate 1: 0.23
snRNA:U1:95Cc + CG43285 (retired record) [DRSC13640] | z-score, replicate 1: -2.6; phenotype, replicate 1: reduced secretion
RpL7A (Ribosomal protein L7A) [DRSC18709] | z-score, replicate 1: -1.66; phenotype, replicate 1: reduced secretion
fd19B (forkhead domain 19B) [DRSC20688] | z-score, replicate 1: -0.16; phenotype, replicate 1: reduced secretion
rump (rumpelstiltskin) [DRSC16480] | z-score, replicate 1: -0.03

Ordered by “z-score, replicate 1” (highest first): some entries from above.
CG32111 (retired record) [DRSC09203] | z-score, replicate 1: 0.79
Aasdh (Aminoadipate-semialdehyde dehydrogenase) [DRSC03467] | z-score, replicate 1: 0.71
Tsp42Ek (Tetraspanin 42Ek) [DRSC06187] | z-score, replicate 1: 0.31
dila (dilatory) [DRSC06607] | z-score, replicate 1: 0.1

Further reagents:
PK2-R2 (Pyrokinin 2 receptor 2) [DRSC16448] | z-score, replicate 1: 0.48
CG13002 [DRSC19521] | z-score, replicate 1: 0.42
CG7006 [DRSC16169] | z-score, replicate 1: 0.28
Ald2 (Aldolase 2) [DRSC14730] | z-score, replicate 1: -2.79; phenotype, replicate 1: reduced secretion
Ald2 (Aldolase 2) [DRSC15799] | z-score, replicate 1: -0.97
CycA (Cyclin A) [DRSC09132] | z-score, replicate 1: -2.94; phenotype, replicate 1: reduced secretion
CycA (Cyclin A) [DRSC11123] | z-score, replicate 1: -1.98; phenotype, replicate 1: reduced secretion
aus (argus) [DRSC13471] | z-score, replicate 1: 0.06
aus (argus) [DRSC13473] | z-score, replicate 1: -0.21
aus (argus) [DRSC15157] | z-score, replicate 1: 0.09
anchor [DRSC10861] | z-score, replicate 1: 0.34
ND-B17.2 (NADH dehydrogenase (ubiquinone) B17.2 subunit) [DRSC00577] | z-score, replicate 1: 0.14
hll (heimdall) [DRSC01944] | z-score, replicate 1: 0.02
CG11178 [DRSC19396] | z-score, replicate 1: 0.54
dyw (daywake) [DRSC18228] | z-score, replicate 1: 0.23
Or94a (Odorant receptor 94a) [DRSC16772] | z-score, replicate 1: 0.22
CG14367 [DRSC14829] | z-score, replicate 1: 0.21
CG13625 [DRSC14627] | z-score, replicate 1: -1.53; phenotype, replicate 1: reduced secretion
Ogdh (Oxoglutarate dehydrogenase) [DRSC09854] | z-score, replicate 1: 0.49
Ogdh (Oxoglutarate dehydrogenase) [DRSC09855] | z-score, replicate 1: -0.37
CG11906 [DRSC06096] | z-score, replicate 1: 0.49
CG34176 [DRSC00435] | z-score, replicate 1: 0.1
CG32109 [DRSC09816] | z-score, replicate 1: 0.28
CG13579 [DRSC04215] | z-score, replicate 1: 0.5
lsn (larsen) [DRSC16081] | z-score, replicate 1: -0.04
